Entries after “also recorded” stand apart in the source; their conditions may differ. Part of at least one peptide drawing is inferred or uncertain, most often the ends. Residues, ends and D or L forms follow the SMILES beside them. No end group written: not given here.
Legend:
VEGF = test: Western blot of VEGF in adult cardiac tissue after infarction; assay type: in vivo, mouse; settings: twenty-one days after injection, compared to PBS
N-Cadherin = test: Western blot of N-Cadherin in infarcted hearts; assay type: in vivo, mouse; settings: infarction core and border zone, 21 days after infarction
Text: (§1) Animals and Surgical procedures. Mice: Myocardial infarctions were produced in seventy C57BL/6J male mice at 16 weeks of age (25-30 g) by ligation of the left anterior descending (LAD) coronary artery as described (Garner et al., 2003). All animal protocols were reviewed and approved by the University of Texas Southwestern Medical School Institutional Animal Care Advisory Committee and were in compliance with the rules governing animal use as published by the NIH. Mice were sedated in an isoflurane chamber (5%) for 60 seconds until self-designed coaxial mask could be safely applied. The mask supplied continuous isoflurane (2.0%) and oxygen (98.0%) under positive pressure from a Harvard small animal respirator throughout the procedures. […] Effective doses of the peptides were calculated based on optimal in vitro cell migration effect and on biodistribution calculations of full length TB4 (Mora et al., 1997). […]
Western blot. […] The protein fraction was isolated from the interphase of the Trizol purification as recommended by the manufacturer; 10 μg of the total protein was loaded and analyzed by Western blot with protein-specific primary antibodies: VEGF, p-Marcks, p-Akt, and GAPDH (1:100) (Santa Cruz), Connexin43 (1:50) (Invitrogen), N-Cadherin (1:5000) (BD Biosciences) and pS368-Connexin43 (1:1000) (Cell Signaling Technology).

Connexin43 = Connexin43 expression (Western blot) and localization (immunohistology) in infarcted hearts; assay type: in vivo, mouse; settings: for Cx43 localization: border zone of cardiac infarction; for Cx43 expression: infarcted cores, 21 days after infarction
Text: Animals and Surgical procedures. Mice: Myocardial infarctions were produced in seventy C57BL/6J male mice at 16 weeks of age (25-30 g) by ligation of the left anterior descending (LAD) coronary artery as described (Garner et al., 2003). All animal protocols were reviewed and approved by the University of Texas Southwestern Medical School Institutional Animal Care Advisory Committee and were in compliance with the rules governing animal use as published by the NIH. Mice were sedated in an isoflurane chamber (5%) for 60 seconds until self-designed coaxial mask could be safely applied. The mask supplied continuous isoflurane (2.0%) and oxygen (98.0%) under positive pressure from a Harvard small animal respirator throughout the procedures. Immediately after ligation mice were injected with 200 ng of peptide in […] or […] PBS in collagen intracardially in the infarction border, and with […] PBS intraperitoneally as described (Bock-Marquette et al., 2004). Intraperitoneal injections were repeated every three days after ligation. Effective doses of the peptides were calculated based on optimal in vitro cell migration effect and on biodistribution calculations of full length TB4 (Mora et al., 1997). The inventors administered buprenorphine (0.05 mg/kg) for post-operative pain control. Hearts were removed 1, 14 and 21 days after ligation and processed for further investigations.
Western blot. One, fourteen and twenty-one days after systemic injection of peptides, TB4 or PBS (n=3/each treatment), mice were sedated. Hearts were perfused with saline to remove blood. The intact area and infarcted core of the hearts were separated immediately frozen in liquid nitrogen. Samples were placed in 1 ml of Trizol reagent directly before homogenization (Invitrogen, Carslbad, Calif.). The protein fraction was isolated from the interphase of the Trizol purification as recommended by the manufacturer; 10 μg of the total protein was loaded and analyzed by Western blot with protein-specific primary antibodies: VEGF, p-Marcks, p-Akt, and GAPDH (1:100) (Santa Cruz), Connexin43 (1:50) (Invitrogen), N-Cadherin (1:5000) (BD Biosciences) and pS368-Connexin43 (1:1000) (Cell Signaling Technology).
(§2) Immunohistochemistry. Adult mouse cardiac tissue was fixed in 4% paraformaldehyde and sections were analyzed by immunohistochemistry. Hearts were sectioned at eight levels from the base to the apex. […] Number of sm a-actin positive capillaries and Wt-1 positive cells were counted at the infarction border zone in high power photographs at all levels of the sections in three peptide, TB4 and PBS treated hearts respectively.

myocardial cells = test: Beating frequency of myocardial cells in embryonic cardiac explants on collagen gel; assay type: cell-based, mouse; settings: for myocyte beating, effect in words: compared with full-length TB4 or other constructs
Protocol: (§3) In vitro embryonic cardiac cell migration assay. The outflow tract of the heart was dissected from E11.5 wild-type mouse embryos and placed on rat-tail collagen matrix (Roche) endothelial layer facing down as described (Bock-Marquette et al., 2004; Runyan and Markwald, 1983). After 10 h of attachment, three independent explants were incubated with 300 ng of peptide #1-17, 100 ng of TB4, or 3 μl PBS in […] OPTIMEM medium (Invitrogen/Gibco) respectively. Medium and protein were changed every two days. To monitor migration distance photos were taken daily using Nikon DXM1200F microscope at 4× magnification. Cell migration distance was quantified by ImageJ software (http at rsb.info.nih.gov/ij/) in three separate explants and three measurements for each treatment respectively. Beating frequency of myocardial cells was counted three times at 7-15 days of treatment. Calculations were normalized to PBS and TB4 treated positive and negative controls. After 15 days at 37° C. in 5% CO2, explants were fixed in 4% paraformaldehyde in PBS for 10 min at room temperature. Explants were stored at 4° C. in PBS for further immunocytochemical investigations.

adult infarcted pigs = test: Ischemia reperfusion (acute myocardial infarction) in pigs with retroinfusion of peptides; assay type: in vivo, pig; settings: for left ventricular end-diastolic pressure: after ischemia and 24 h reperfusion; for regional myocardial function in the infarcted area: at rest and under increased heart rate (atrial pacing); for infarct size: in % of AAR, 60 min occlusion, retroinfusion at onset of reperfusion, n=5; for post-ischemic inflammatory leukocyte influx (myeloperoxidase activity): ischemic heart tissue after retroinfusion; for global myocardial function, in words: compared to PBS treated controls
Protocol: Pigs: German pigs were purchased from the animal research department of the Ludwig-Maximilians-University (Oberschleissheim, Germany). Animal care and all experimental procedures were performed in accordance to the German and NIH animal legislation guidelines and were approved by the Bavarian Animal Care and Use Committee (AZ 55.2-1-54-2531-26/09). All animal experiments were conducted at the Walter Brendel Centre of Experimental Medicine, University of Munich.
Ischemia reperfusion experiments: Pigs (n=5/experimental group) were anesthetized and instrumented as described previously (Hinkel et al., 2008). Briefly, a balloon was placed in the left anterior descending artery (LAD) distal to the bifurcation of the first diagonal branch and inflated for 60 min. Correct localization of the coronary occlusion and patency of the first diagonal branch were ensured by injection fluoroscopy. Regional application of TB4 peptides or saline solution was performed via selective pressure regulated retroinfusion for 10 min into the anterior interventricular vein (AIV) draining the LAD-perfused myocardium (Kupatt et al., 2005).
Global myocardial function: At day 0 before ischemia induction and after 24 h of reperfusion myocardial function was obtained via Millar pressure tip catheter. Therefore the Millar pressure tip catheter was placed in the left ventricle and left ventricular pressure was recorded for off-line analysis.
Regional myocardial function: 24 hours after induction of ischemia, sternotomy was performed and ultrasonic crystals were placed subendocardial into the area at risk, the infracted area as well as into the Cx perfusion area in a standardized manner. Subendocardial segment shortening (SES) was assessed under resting heart rate as well as at 120 and 150 beats/min atrial pacing (for 1 min/each).
Infarct size and local inflammation: For assessment of infarct size methylene blue was injected in the left ventricle for negative staining of the AAR and tetrazolium red was applied into the LAD for viability staining in the infracted area. Thereafter, left ventricle was cut into slices (5 mm thick), and subjected to digital photography. Planimetry of different slices was conducted via ImageJ for assessment of infarct size in % of AAR. Tissue samples from infarct, area at risk and non-ischemic control were harvested for leukocyte recruitment. Myeloperoxidase assays were performed as previously described (Kupatt et al., 2005).

[1] = tested on: embryonic cardiac endothelial cells; test: In vitro embryonic cardiac cell migration assay on collagen gel (outflow tract explants); assay type: cell-based, mouse; settings: compared with full-length TB4 or other constructs
Protocol: as §3

mature coronary vessels = test: Immunohistochemistry, smooth muscle α-actin positive vessels at infarction border zone; assay type: in vivo, mouse; settings: 21 days / three weeks, compared to PBS
Text: as §1
as §2, with “immunohistochemistry.” for “immunohistochemistry. Hearts were sectioned at eight levels from the base to the apex.”

Compound | VEGF expression (VEGF) | N-Cadherin expression (N-Cadherin) | Cx43 localization (Connexin43) | Cx43 expression (Connexin43) | myocyte beating, effect in words (myocardial cells) | left ventricular end-diastolic pressure (adult infarcted pigs) | regional myocardial function in the infarcted area (adult infarcted pigs) | infarct size (adult infarcted pigs) | post-ischemic inflammatory leukocyte influx (myeloperoxidase activity) (adult infarcted pigs) | endothelial cell migration, effect in words [1] | number of mature, smooth muscle α-actin positive vessels (mature coronary vessels) | frequency of myocardial beating (myocardial cells; 300 ng peptide or 100 ng TB4, normalized to PBS and TB4 controls (TB4 = 100.00)) | myocyte beating, effect in words (myocardial cells; listed as AGES) | global myocardial function, in words (adult infarcted pigs) | global myocardial function, in words (adult infarcted pigs; listed as AGES) | endothelial cell migration, effect in words ([1]; listed as AGES)
LKKTETQEKNPLPSKETIEQEKQAGES [#14] | increase in VEGF expression | no changes; also recorded: unchanged | localized mainly at the lateral borders of myocytes; also recorded: mostly distributed around the myocytes | but not in #14 and PBS treated infarcted cores | close to full length TB4; also recorded: in similar extent than full-length TB4 | 11.9+/−0.8 mmHg | increased myocardial function only at rest but not at higher heart rates; also recorded: dramatic decrease in regional myocardial function | 46±5% | reduced post-ischemic inflammatory leukocyte influx; also recorded: reduction of post-ischemic inflammation | to a lesser extent than full-length TB4, #1 or #17; also recorded: in similar extent than full-length TB4 | increase the number of mature, smooth muscle a-actin positive vessels; also recorded: significant increase in the number of mature vessels; also recorded: increases significantly | – | – | – | – | –
C[C@H](N)C(=O)NCC(=O)N[C@@H](CCC(=O)O)C(=O)N[C@@H](CO)C(=O)O [#17, AGES] (H-AGES-OH) | increase in VEGF expression | slight, but non-significant increase; also recorded: slightly upregulated | stayed primarily at the intercalated discs; also recorded: mainly localized to the intercalated discs | significant increase in Cx43 expression; also recorded: significant increase in Cx43 level | better than full length TB4; also recorded: increases endothelial cell migration and myocardial beating frequency in higher; also recorded: increases cell migration and beating frequency respectively when compared to full-length TB4 | 9.5+/−0.4 mmHg | significantly improved; also recorded: significant increase | 38+/−4% | reduced post-ischemic inflammatory leukocyte influx; also recorded: reduction of post-ischemic inflammation | increases endothelial cell migration and myocardial beating frequency in higher; also recorded: increases cell migration and beating frequency respectively when compared to full-length TB4 | increase the number of mature, smooth muscle a-actin positive vessels; also recorded: increases significantly | 144.26+/−8.08 beats/75 sec | in larger scale than the actin-binding and helix domain extended peptide #14 | significant increase | significantly increases function | in larger scale than the actin-binding and helix domain extended peptide #14
